No constants are given. Whether binding was seen depends on the method and setting. Some results given as binding are weak or reduced against the parent protein; the word gives no strength.
Target: Flag-tagged soluble human Fas ligand (FasL-Flag) (human) (UniProt P48023)
Assay: competition ELISA: FasL-Flag (100 ng/ml) preincubated with soluble Fas-Fc, added to immobilised Fas-Fc, anti-Flag-HRP detection

Chains of the proteins cited; added tags and fusions are not shown. Residues count along the entry.
UniProt P48023, residues 103-281: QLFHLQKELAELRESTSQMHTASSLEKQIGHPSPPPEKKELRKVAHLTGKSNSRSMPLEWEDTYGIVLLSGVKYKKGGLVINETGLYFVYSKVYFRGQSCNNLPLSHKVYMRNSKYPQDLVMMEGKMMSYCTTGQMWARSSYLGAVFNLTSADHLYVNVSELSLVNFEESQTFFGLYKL
UniProt P25445, residues 26-173: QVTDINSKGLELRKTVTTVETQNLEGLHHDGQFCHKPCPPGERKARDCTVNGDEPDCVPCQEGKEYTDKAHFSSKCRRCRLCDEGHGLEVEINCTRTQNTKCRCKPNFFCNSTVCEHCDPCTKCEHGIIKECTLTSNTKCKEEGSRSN

Question: Which binding does the source give for “human Fas extra cellular domain-IgGFc fusion protein (Fas-Fc) (from UniProt P25445 26-173)” here?
Answer: binds
